In PubChem BioAssay AID2685 (National Center for Advancing Translational Sciences (NCATS), 2010) one finds cell number change and AC50 data, which are given here for 17 molecules.

The assay can be described thus: qHTS Assay for Lipid Storage Modulators in Drosophila S3 Cells.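 On cell number change: cells counted by Cell Tracker Red CMTPX staining in the red channel.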 The conditions noted are these: BODIPY lipid droplet fluorescence, 18-24 h; for cell number change: measured here: cell count max response, cells fed with added oleic acid. A digest of the protocol: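 Drosophila S3 cells loaded with oleic acid (400 uM, as added) and compounds at several concentrations; lipid droplets imaged by 488-nm laser-scanning cytometry, 500–530 nm intensity and object ratio to cell channel. Percent activity normalized to 20 uM Triacsin C.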

Setting [1] is: measured here: cell number channel AC50, cells fed with added oleic acid.
Setting [2] is: measured here: lipid fluorescence (Fed channel) AC50, cells fed with added oleic acid.

The other results are listed elsewhere or left out. Further columns of the screen follow, without active or inactive calls. The list favours compounds with an active or inconclusive main result. The note in brackets gives the kind of curve behind each potency; many fits are weak.

Turning to `O=S(=O)(NCC(c1ccco1)N1CCN(c2ccc(F)cc2)CC1)c1ccc(F)cc1` (configuration not stated), the cell number change was -31.2%. Moreover, the AC50 under setting [1] is 20.6 µM [falling, single point]. For the same molecule, under setting [2], the AC50 is 29.1 µM [falling, single point]. `CN1CCc2c(sc(NC(=O)c3ccc4ccccc4c3)c2C(N)=O)C1`: the cell number change is -34.8%. Under setting [2], the concentration at half-maximal activity (AC50) is 18.4 µM [falling, partial curve]. `O=C(NCCCl)Nc1cccnc1Cl`: the AC50 under setting [1] was 0.116 µM [falling, full curve, poor fit] and the AC50 under setting [2] was 0.366 µM [falling, full curve]. As for `O=C1NCCCCC1NS(=O)(=O)c1ccccc1` (configuration not stated), the cell number change is -18.9%. Moreover, the AC50 under setting [2] is 6.51 µM [falling, full curve, poor fit]. For the molecule `CCN(CC(=O)NCc1ccc(Cl)cc1)C(=O)c1ccc2cc(OC)ccc2c1`, the cell number change worked out at 23.9%. For the same molecule, under setting [2], the AC50 is 29.1 µM [rising, single point].

For the molecule `O=C(CSc1ccc(Cl)cc1)Nc1ccc(-c2nc3ccccc3[nH]2)cc1`, the cell number change was -71.5%. In addition, the AC50 under setting [1] was 23.1 µM [falling, partial curve]. The AC50 under setting [2] was 0.731 µM [falling, partial curve, poor fit]. Turning to `CC(Oc1ccccc1)C(=O)N1CCC2(CC1)CC(=O)c1ccccc1O2` (configuration not stated), the cell number change was determined as 2.41%. On to `CC(C)c1ccc(/C=C2\SC(=S)N(CC(=O)NCCCN3CCOCC3)C2=O)cc1`, for which the cell number change came out at 3.85%. For the same molecule, under setting [2], the half-maximal activity concentration (AC50) was 5.17 µM [falling, single point]. For `C(=N\Nc1nnnn1-c1ccccc1)/c1ccncc1`, the AC50 under setting [2] is 2.91 µM [rising, single point]. As for `COc1ccccc1-c1sc2ccccc2c1-c1ccccc1OC`, the cell number change is -9.83%. With `CCS(=O)(=O)c1ccc2oc(Nc3cccc(OC)c3)nc2c1`, the cell number change came out at 100%. Further, under setting [1], the AC50 was 23.1 µM [rising, single point]. In addition, the AC50 under setting [2] was 0.00461 µM [falling, full curve, poor fit]. On to `CC1CCCN(C(C(=O)NC2CCCCC2)c2cc3c(cc2[N+](=O)[O-])OCO3)C1` (configuration not stated), for which the cell number change turned out to be 2.11%. Besides, the AC50 under setting [2] was 0.82 µM [rising, full curve, poor fit]. Turning to `O=C1c2cccc(OCC(=O)N3N=C(c4cccs4)CC3c3ccc(F)cc3)c2CCN1Cc1ccccc1` (configuration not stated), the cell number change was found to be 1.68%. In addition, under setting [2], the AC50 was 0.291 µM [rising, partial curve, poor fit]. On to `COC(=O)CNC(=O)CNC(=O)Nc1ccccc1Cl`, for which the cell number change was -2.43%. Further, the AC50 under setting [2] was 29.1 µM [falling, single point]. As to `Cc1cccc(C(=O)NC2CCN(C(=O)NCc3ccccc3)CC2)c1`, the cell number change was -6.96%. Moreover, the AC50 under setting [2] was 29.1 µM [rising, single point]. As for `COc1ccc2nc(NC(=O)C3CC(=O)N(c4ccccc4)C3)sc2c1` (configuration not stated), the cell number change is -2.14%. For the molecule `CCCCOCCCNC(=O)C1c2ccccc2Oc2ccccc21`, the cell number change was -16.2%.
